Primary screen of a compound library

Values are the deposited “Percent Effect”, in %. The controls that fix the scale are not given in the record; negative values are as filed. The compounds are a random part of those screened. Two or more numbers in one place are separate tests of the same structure; such repeats can differ widely.

Mtb glucose medium: 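Phenotypic screen: M. tuberculosis growth, glucose 7H9 medium, 3 days; the read-out is not stated. Tested at 50 µM. Higher reads as more growth inhibition (inferred: compounds with an IC50 in retests scored well above the rest). Size under these conditions: about 69,000 compounds, about 760 of them at 50% or above in at least one test.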
Mtb cholesterol medium: 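Phenotypic screen: M. tuberculosis growth, cholesterol and DPPC medium, 4 days; the read-out is not stated. Tested at 50 µM. The record gives no direction; compounds that gave an IC50 in retests scored well above the rest, so higher reads as more growth inhibition. Size under these conditions: about 69,000 compounds, about 370 of them at 50% or above in at least one test.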

| # | Compound | Mtb glucose medium | Mtb cholesterol medium |
|---|---|---|---|
| 1 | `O=S(=O)(CCO)Cc1ccc(OC(F)F)cc1` | -14.63 | 11.96 |
| 2 | `CCCN1CCC(NC(=O)c2ccc(F)cc2I)CC1` | 29.71 & -0.7465 | 9.08 |
| 3 | `Cc1nc(C)n(CC2CCCN2Cc2cscn2)n1` (stereo not given) | 18.71 | -22.88 |
| 4 | `CC(Nc1cccc(F)c1C#N)c1cccc(S(N)(=O)=O)c1` (stereo not given) | 24.69 | -2.619 & -5.863 |
| 5 | `CCc1oc(C(=O)NC(C)c2ncn[nH]2)cc1CN1CCCC1` (stereo not given) | 14.27 | -1.735 |
| 6 | `COCc1nc(C(=O)N2CCCC2c2noc(C(C)C)n2)cs1` (stereo not given) | 45.72 | 4.352 |
| 7 | `Cc1cc(C)n(CC2CN(CC(=O)NC3CCCCC3)CCO2)n1` (stereo not given) | 18.25 | -1.649 |
| 8 | `O=C1CSC(c2ccc(F)c(Cl)c2)c2c(n(C3CCOCC3)[nH]c2=O)N1` (stereo not given) | 3.741 | -18.86 |
| 9 | `CCN(CC)Cc1cc(C(=O)N2CC(C)(C)[C@@](C)(O)C2)c(C)o1` | -1.46 & -9.477 | -8.728 |
| 10 | `CC(C)NC(=O)C1CN(C(=O)N(C)C)CC12CCOCC2` (stereo not given) | 5.375 | 0.5905 |
| 11 | `COc1ccccc1CC(C)CC(=O)NC(C)C` (stereo not given) | -0.2602 & -4.056 | -3.447 |
| 12 | `Cc1cc(CNC(=O)NCC(O)c2cccc(C(F)(F)F)c2)no1` (stereo not given) | -41.55 & 8.248 | -2.891 |
| 13 | `CCCc1nc(C(=O)N2CCN(C(=O)c3ccc(OC)cc3)CC2)cs1` | -4.877 & -17.22 | -18.59 |
| 14 | `Cc1ccc(C2COCCN2C(=O)c2cccc(N(C)C)c2)o1` (stereo not given) | 19.18 | 1.846 & -5.964 |
| 15 | `CC(NC(=O)N(C)Cc1ccncc1)c1cn(-c2ccccc2)nn1` (stereo not given) | -17.58 | -3.45 |
| 16 | `COC1COC2(CCN(c3ccc(C#N)cc3)CC2)C1.O=C(O)C(F)(F)F` (stereo not given) | 6.748 | -0.6562 |
| 17 | `CCc1cnc(C)nc1NC(CC)c1ncnn1CC` (stereo not given) | -3.33 | -13.4 |
| 18 | `CCCN1CCN(C(=O)Cn2nc(C(F)(F)F)c(Br)c2C2CC2)CC1` | 7.556 | -24.72 |
| 19 | `O=C(O)C(F)(F)F.O=C(O)C(F)(F)F.[H][C@@]12CN(Cc3ccc(F)cc3)C[C@]1([H])OCCN2c1ccc(C)nn1` | 10.39 | 7.652 |
| 20 | `CN1N=C(C(=O)N2CCN(c3ncccn3)CC2)CCC1=O` | 12.17 | -0.9731 |
| 21 | `COCc1nc2cc(NCc3cc[nH]n3)ccc2o1` | -1.604 & -24.5 | -6.636 |
| 22 | `CN(CC(O)C1CC1)C(=O)c1ccc(-c2nc(C3CC3)n[nH]2)cc1` (stereo not given) | -19.39 | -23.43 |
| 23 | `CC(NS(C)(=O)=O)C(=O)N1CCCN(Cc2cscn2)CC1` (stereo not given) | 28.45 | 18.29 |
| 24 | `CN1C(=O)COc2ccc(NC(=O)CCc3nc4cccnc4[nH]3)cc21` | -0.51 & -0.1595 | 13.09 |
| 25 | `CCc1cnc(CCNC(=O)N2CCCC(c3ncc[nH]3)C2)s1` (stereo not given) | -0.8069 & 1.2 | -17.62 |
| 26 | `COc1cnc(CN2CCN(CC(C)C)C(=O)C2C)cc1O` (stereo not given) | 27.43 | -1.808 |
| 27 | `CNc1cc(C)nc(C2CN(Cc3cncs3)CCO2)c1` (stereo not given) | 10.5 | -0.1972 |
| 28 | `Cc1nc(CN(C)C2CCN(Cc3cccc(F)c3)C2)no1` (stereo not given) | -5.095 | 6.423 |
| 29 | `c1ccc(SCCN2CCCC(Cn3ccnc3)C2)cc1` (stereo not given) | 15.61 | 21.43 |
| 30 | `Cn1c(NCC(O)c2ccc(F)c(F)c2)c(C#N)c(=O)n(C)c1=O` (stereo not given) | -17.99 | 0.3781 |
| 31 | `CC(C)N(C)C(=O)c1ccc(CNc2cncc(Cl)n2)cc1` | -8.071 | -4.618 |
| 32 | `O=C(O)C(F)(F)F.[H][C@@]12CCN(Cc3cccc(F)c3)C[C@]1(C(=O)N1CCOCC1)CCO2` | -3.314 | 2.391 |
| 33 | `CC(=O)NC(CC(=O)Nc1ccc(C)cn1)c1ccccc1` (stereo not given) | 32.88 | -4.404 |
| 34 | `c1ccc(O[C@H]2COCCN(CC3CC3)C2)cc1` | -12.54 & -3.941 | -21.11 |
| 35 | `CCN(Cc1ccccn1)Cc1cc(Cl)ccc1OC` | 8.251 & 29.17 | 0.5997 |
| 36 | `CC(C(=O)NCCOc1cccc(Cl)c1)n1cncn1` (stereo not given) | -14.68 | -14.77 |
| 37 | `O=C(O)C(F)(F)F.O=C(O)C(F)(F)F.[H][C@@]12COC[C@]1(COc1ncccc1F)CN(c1cc(OC)ncn1)C2` | 29.47 | -0.8462 |
| 38 | `[H][C@]12OCCC[C@]1([H])N(C(=O)c1ccccn1)C[C@H]2OCc1cccnc1` | -7.536 | -16.17 |
| 39 | `Cc1cc(-c2cc(N)c(=O)n(CC(=O)NCC3CCCCC3)n2)c(C)o1` | -3.89 | -3.819 |
| 40 | `CSCCC(=O)N1CCCCC1CCn1cccn1` (stereo not given) | -4.906 | 18.2 |
| 41 | `COc1ccc(OC)c(C(=O)N2CCCCC2Cn2cccn2)c1` (stereo not given) | 13.59 | 1.236 |

Some entries from above, unchanged:

| Compound | Mtb glucose medium | Mtb cholesterol medium |
|---|---|---|
| `Cc1nc(CN(C)C2CCN(Cc3cccc(F)c3)C2)no1` (stereo not given) | -5.095 | 6.423 |
| `COc1cnc(CN2CCN(CC(C)C)C(=O)C2C)cc1O` (stereo not given) | 27.43 | -1.808 |
| `CC(=O)NC(CC(=O)Nc1ccc(C)cn1)c1ccccc1` (stereo not given) | 32.88 | -4.404 |
| `CCc1cnc(CCNC(=O)N2CCCC(c3ncc[nH]3)C2)s1` (stereo not given) | -0.8069 & 1.2 | -17.62 |
| `COC1COC2(CCN(c3ccc(C#N)cc3)CC2)C1.O=C(O)C(F)(F)F` (stereo not given) | 6.748 | -0.6562 |

The values are deposited in ChEMBL (CHEMBL3988442, “University of Dundee, Small-Polar-MMV Screening Library” (2021)).